In patent US8518891B2 (priority 2006, dated 2013):
For part of these data: Strings that start with PEPTIDE1 are HELM notation: dots part the residues, brackets hold end groups and non-standard residues. Numbered stars: 1 amine (or outer) side, 2 acyl side, 3 side chain; on linkers, the order of the positions; unused ones are H or OH. Square brackets hold non-standard residues; d marks the D form. Peptide text beside a SMILES is read from it. * marks the point of attachment. X4 = NP(=O)(OCc1c(F)cc(N*)cc1F)N(CCCl)CCCl; X2 = NP(=O)(OCc1ccc(N*)c(F)c1)N(CCCl)CCCl; X1 = NP(=O)(OCc1ccc(N*)cc1F)N(CCCl)CCCl; X3 = NP(=O)(OCc1ccc(N*)cc1)N(CCCl)CCCl; Glutaryl = O=C(CCCC(=O)[*:2])[*:1]; Hyp = O=C(O)[C@@H]1C[C@@H](O)CN1; Chg = N[C@H](C(=O)O)C1CCCCC1

Test system: LNCaP human prostate cancer cell line
Assay: In vitro antiproliferative activity assay in PSA-producing LNCaP cells
Assay type: cell-based
Conditions: not given
Description: Furthermore, analogs 5b and 5c were synthesized with an electron-withdrawing fluorine atom at C2 (5b) and C3 (5c), respectively.

| Molecule | Selectivity (ratio of IC50 in DU145 and IC50 in LNCaP) |
| --- | --- |
| C[C@H](NC(=O)[C@@H]1C[C@@H](O)CN1C(=O)CCCC(=O)O)C(=O)N[C@@H](CO)C(=O)N[C@H](C(=O)N[C@@H](CCC(N)=O)C(=O)Nc1ccc(COP(N)(=O)N(CCCl)CCCl)cc1)C1CCCCC1 (stereo partly drawn) [5a, glutaryl-Hyp-Ala-Ser-Chg-Gln-NH-benzyl phosphoramide mustard] (Glutaryl-[Hyp]AS[Chg]Q-X3) | 3 |
| C[C@H](NC(=O)[C@@H]1C[C@@H](O)CN1C(=O)CCCC(=O)O)C(=O)N[C@@H](CO)C(=O)N[C@H](C(=O)N[C@@H](CCC(N)=O)C(=O)Nc1ccc(COP(N)(=O)N(CCCl)CCCl)c(F)c1)C1CCCCC1 (stereo partly drawn) [5b, glutaryl-Hyp-Ala-Ser-Chg-Gln-NH-2-fluorobenzyl phosphoramide mustard] (Glutaryl-[Hyp]AS[Chg]Q-X1) | >19 |
| C[C@H](NC(=O)[C@@H]1C[C@@H](O)CN1C(=O)CCCC(=O)O)C(=O)N[C@@H](CO)C(=O)N[C@H](C(=O)N[C@@H](CCC(N)=O)C(=O)Nc1ccc(COP(N)(=O)N(CCCl)CCCl)cc1F)C1CCCCC1 (stereo partly drawn) [5c, glutaryl-Hyp-Ala-Ser-Chg-Gln-NH-3-fluorobenzyl phosphoramide mustard] (Glutaryl-[Hyp]AS[Chg]Q-X2) | >3 |
| C[C@H](NC(=O)[C@@H]1C[C@@H](O)CN1C(=O)CCCC(=O)O)C(=O)N[C@@H](CO)C(=O)N[C@H](C(=O)N[C@@H](CCC(N)=O)C(=O)Nc1cc(F)c(COP(N)(=O)N(CCCl)CCCl)c(F)c1)C1CCCCC1 (stereo partly drawn) [5d, glutaryl-Hyp-Ala-Ser-Chg-Gln-NH-2,6-difluorobenzyl phosphoramide mustard] (Glutaryl-[Hyp]AS[Chg]Q-X4) | >5 |

Test system: not listed separately
Assay: general procedure: Fmoc solid-phase peptide synthesis; SASRIN (2-methoxy-4-alkoxybenzyl alcohol, 200-400 mesh, Bachem) or WANG-type HMP resin (Advanced Chemtech); DMAP/DIC (SASRIN) or HOBt/DMAP/DIC (WANG) for first amino acid; HBTU/DIPEA for s
Conditions: conjugation step

| Molecule | conjugation yield |
| --- | --- |
| PEPTIDE1{[Glt].[Hyp].A.S.[Chg].Q.[NH-2,6-diF-Bn-PM]}$$$$V2.0 | 40% |
| PEPTIDE1{[Glt].[Hyp].A.S.[Chg].Q.[NH-2F-Bn-PM]}$$$$V2.0 | 38% |
| PEPTIDE1{[Glt].[Hyp].A.S.[Chg].Q.[NH-3F-Bn-PM]}$$$$V2.0 | 28% |
| PEPTIDE1{[Glt].[Hyp].A.S.[Chg].Q.[NH-Bn-PM]}$$$$V2.0 | 30% |
| PEPTIDE1{[Glt].[Hyp].A.S.[Chg].Q.[NH-tetraF-Bn-PM]}$$$$V2.0 | 30% |
